# Assay results from the supplement of paper PMC8728848.
# The list shows a part of the results.
# Assays:
# Assay in all cases: glycan array binding signal (z-score within array); higher = stronger binding
# Details in all cases: glycan notation: IUPAC condensed, linker removed
# Fuc(a1-2)Gal = target: Fuc(a1-2)Gal
# How it was run: (§1)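 Glycan array binding is given as a within-array Z-score, which can be read as non-binding when negative. The arrays, 3228 of them, came from the Consortium for Functional Glycomics database and were retained only where the protein sequence was available. Z-scores were averaged across arrays of the same protein sequence at different concentrations or buffers and across linkers.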
# Fuc(a1-2)Gal(b1-3)GalNAc = target: Fuc(a1-2)Gal(b1-3)GalNAc
# How it was run: as §1
# [1] = target: Fuc(a1-2)Gal(b1-3)GalNAc(a1-3)[Fuc(a1-2)]Gal(b1-4)Glc
# How it was run: as §1
# [2] = target: Fuc(a1-2)Gal(b1-3)GalNAc(a1-3)[Fuc(a1-2)]Gal(b1-4)GlcNAc
# How it was run: as §1
# [3] = target: Fuc(a1-2)Gal(b1-3)GalNAc(b1-3)Gal
# How it was run: as §1
# [4] = target: Fuc(a1-2)Gal(b1-3)GalNAc(b1-3)Gal(a1-4)Gal(b1-4)Glc
# How it was run: as §1
# [5] = target: Fuc(a1-2)Gal(b1-3)GalNAc(b1-4)[Neu5Ac(a2-3)]Gal(b1-4)Glc
# How it was run: as §1
# Fuc(a1-2)Gal(b1-3)GlcNAc = target: Fuc(a1-2)Gal(b1-3)GlcNAc
# How it was run: as §1
# [6] = target: Fuc(a1-2)Gal(b1-3)GlcNAc(b1-2)Man(a1-3)[Fuc(a1-2)Gal(b1-3)GlcNAc(b1-2)Man(a1-6)]Man(b1-4)GlcNAc(b1-4)GlcNAc
# How it was run: as §1
# [7] = target: Fuc(a1-2)Gal(b1-3)GlcNAc(b1-2)Man(a1-3)[Fuc(a1-2)Gal(b1-3)GlcNAc(b1-2)Man(a1-6)]Man(b1-4)GlcNAc(b1-4)[Fuc(a1-6)]GlcNAc
# How it was run: as §1
# [8] = target: Fuc(a1-2)Gal(b1-3)GlcNAc(b1-3)Gal(b1-4)Glc
# How it was run: as §1
# [9] = target: Fuc(a1-2)Gal(b1-3)GlcNAc(b1-3)GalNAc
# How it was run: as §1
# [10] = target: Fuc(a1-2)Gal(b1-3)GlcNAc(b1-3)[Fuc(a1-2)Gal(b1-3)GlcNAc(b1-6)]GalNAc
# How it was run: as §1
# [11] = target: Fuc(a1-2)Gal(b1-3)GlcNAc(b1-3)[Gal(b1-4)GlcNAc(b1-6)]Gal(b1-4)Glc
# How it was run: as §1
# [12] = target: Fuc(a1-2)Gal(b1-3)GlcNAc(b1-3)[Neu5Ac(a2-6)Gal(b1-4)GlcNAc(b1-6)]Gal(b1-4)Glc
# How it was run: as §1
# [13] = target: Fuc(a1-2)Gal(b1-3)GlcNAc6S
# How it was run: as §1
# [14] = target: Fuc(a1-2)Gal(b1-3)[Fuc(a1-4)]GlcNAc
# How it was run: as §1
# [15] = target: Fuc(a1-2)Gal(b1-3)[Fuc(a1-4)]GlcNAc(b1-2)Man(a1-3)[Fuc(a1-2)Gal(b1-3)[Fuc(a1-4)]GlcNAc(b1-2)Man(a1-3)]Man(b1-4)GlcNAc(b1-4)GlcNAc
# How it was run: as §1
# [16] = target: Fuc(a1-2)Gal(b1-3)[Fuc(a1-4)]GlcNAc(b1-2)Man(a1-3)[Fuc(a1-2)Gal(b1-3)[Fuc(a1-4)]GlcNAc(b1-2)Man(a1-6)]Man(b1-4)GlcNAc(b1-4)[Fuc(a1-6)]GlcNAc(b1-4)[Fuc(a1-6)]GlcNAc
# How it was run: as §1
# [17] = target: Fuc(a1-2)Gal(b1-3)[Fuc(a1-4)]GlcNAc(b1-3)[Fuc(a1-3)[Gal(b1-4)]GlcNAc(b1-6)]Gal(b1-4)Glc
# How it was run: as §1
# [18] = target: Fuc(a1-2)Gal(b1-3)[Fuc(a1-4)]GlcNAc(b1-3)[Gal(b1-4)GlcNAc(b1-6)]Gal(b1-4)Glc
# How it was run: as §1
# Fuc(a1-2)Gal(b1-4)Glc = target: Fuc(a1-2)Gal(b1-4)Glc
# How it was run: as §1
# Fuc(a1-2)Gal(b1-4)Glc6S = target: Fuc(a1-2)Gal(b1-4)Glc6S
# How it was run: as §1
# Fuc(a1-2)Gal(b1-4)GlcNAc = target: Fuc(a1-2)Gal(b1-4)GlcNAc
# How it was run: as §1
# [19] = target: Fuc(a1-2)Gal(b1-4)GlcNAc(b1-2)Man
# How it was run: as §1
# [20] = target: Fuc(a1-2)Gal(b1-4)GlcNAc(b1-2)Man(a1-3)[Fuc(a1-2)Gal(b1-4)GlcNAc(b1-2)Man(a1-6)]Man(b1-4)GlcNAc(b1-4)GlcNAc
# How it was run: as §1
# [21] = target: Fuc(a1-2)Gal(b1-4)GlcNAc(b1-2)Man(a1-3)[Fuc(a1-2)Gal(b1-4)GlcNAc(b1-2)Man(a1-6)]Man(b1-4)GlcNAc(b1-4)[Fuc(a1-6)]GlcNAc
# How it was run: as §1
# [22] = target: Fuc(a1-2)Gal(b1-4)GlcNAc(b1-2)[Fuc(a1-2)Gal(b1-4)GlcNAc(b1-4)]Man(a1-3)[Fuc(a1-2)Gal(b1-4)GlcNAc(b1-2)Man(a1-6)]Man(b1-4)GlcNAc(b1-4)GlcNAc
# How it was run: as §1
# [23] = target: Fuc(a1-2)Gal(b1-4)GlcNAc(b1-3)Gal(b1-4)GlcNAc
# How it was run: as §1
# [24] = target: Fuc(a1-2)Gal(b1-4)GlcNAc(b1-3)Gal(b1-4)GlcNAc(b1-2)Man(a1-3)[Fuc(a1-2)Gal(b1-4)GlcNAc(b1-3)Gal(b1-4)GlcNAc(b1-2)Man(a1-6)]Man(b1-4)GlcNAc(b1-4)GlcNAc
# How it was run: as §1
# [25] = target: Fuc(a1-2)Gal(b1-4)GlcNAc(b1-3)Gal(b1-4)GlcNAc(b1-3)Gal(b1-4)GlcNAc
# How it was run: as §1
# [26] = target: Fuc(a1-2)Gal(b1-4)GlcNAc(b1-3)GalNAc
# How it was run: as §1
# [27] = target: Fuc(a1-2)Gal(b1-4)GlcNAc(b1-3)[Fuc(a1-2)Gal(b1-4)GlcNAc(b1-6)]GalNAc
# How it was run: as §1
# [28] = target: Fuc(a1-2)Gal(b1-4)GlcNAc(b1-3)[Fuc(a1-3)[Gal(b1-4)]GlcNAc(b1-6)]Gal(b1-4)Glc
# How it was run: as §1
# [29] = target: Fuc(a1-2)Gal(b1-4)GlcNAc(b1-6)GalNAc
# How it was run: as §1
# [30] = target: Fuc(a1-2)Gal(b1-4)GlcNAc6S
# How it was run: as §1
# [31] = target: Fuc(a1-2)Gal(b1-4)[Fuc(a1-3)]GlcNAc
# How it was run: as §1
# [32] = target: Fuc(a1-2)Gal(b1-4)[Fuc(a1-3)]GlcNAc(b1-2)Man(a1-3)[Fuc(a1-2)Gal(b1-4)[Fuc(a1-3)]GlcNAc(b1-2)Man(a1-6)]Man(b1-4)GlcNAc(b1-4)[Fuc(a1-6)]GlcNAc
# How it was run: as §1
# [33] = target: Fuc(a1-2)Gal(b1-4)[Fuc(a1-3)]GlcNAc(b1-2)[Fuc(a1-2)Gal(b1-4)[Fuc(a1-3)]GlcNAc(b1-4)]Man(a1-3)[Fuc(a1-2)Gal(b1-4)[Fuc(a1-3)]GlcNAc(b1-2)Man(a1-6)]Man(b1-4)GlcNAc(b1-4)GlcNAc
# How it was run: as §1
# [34] = target: Fuc(a1-2)Gal(b1-4)[Fuc(a1-3)]GlcNAc(b1-3)Gal(b1-4)[Fuc(a1-3)]GlcNAc
# How it was run: as §1
# [35] = target: Fuc(a1-2)Gal(b1-4)[Fuc(a1-3)]GlcNAc(b1-3)Gal(b1-4)[Fuc(a1-3)]GlcNAc(b1-3)Gal(b1-4)[Fuc(a1-3)]GlcNAc
# How it was run: as §1
# [36] = target: Fuc(a1-2)Gal(b1-4)[Fuc(a1-3)]GlcNAc(b1-3)GalNAc
# How it was run: as §1
# [37] = target: Fuc(a1-2)Gal(b1-4)[Fuc(a1-3)]GlcNAc(b1-3)[Neu5Ac(a2-6)Gal(b1-4)GlcNAc(b1-6)]Gal(b1-4)Glc
# How it was run: as §1
# [38] = target: Fuc(a1-2)Gal3S(b1-4)GlcNAc
# How it was run: as §1
# [39] = target: Fuc(a1-2)Gal6S(b1-3)GlcNAc
# How it was run: as §1
binder,measurement,setting,value
pilr alpha (protein) MLYGVTQPKHLSASMGGSVEIPFSFYYPWELATAPDVRISWRRGHFHRQSFYSTRPPSIHKDYVNRLFLNWTEGQKSGFLRISNLQKQDQSVYFCRVELDTRSSGRQQWQSIEGTKLSIT,glycan array binding signal (z-score),Fuc(a1-2)Gal,1.36
same,glycan array binding signal (z-score),Fuc(a1-2)Gal(b1-3)GalNAc,0.863
same,glycan array binding signal (z-score),[1],0.108
same,glycan array binding signal (z-score),[2],-0.058
same,glycan array binding signal (z-score),[3],-0.516
same,glycan array binding signal (z-score),[4],-0.181
same,glycan array binding signal (z-score),[5],-0.073
same,glycan array binding signal (z-score),Fuc(a1-2)Gal(b1-3)GlcNAc,-0.41
same,glycan array binding signal (z-score),[6],-0.321
same,glycan array binding signal (z-score),[7],0.342
same,glycan array binding signal (z-score),[8],-0.19
same,glycan array binding signal (z-score),[9],-0.88
same,glycan array binding signal (z-score),[10],0.217
same,glycan array binding signal (z-score),[11],-0.252
same,glycan array binding signal (z-score),[12],1.27
same,glycan array binding signal (z-score),[13],-0.223
same,glycan array binding signal (z-score),[14],0.099
same,glycan array binding signal (z-score),[15],-0.496
same,glycan array binding signal (z-score),[16],-0.535
same,glycan array binding signal (z-score),[17],-0.333
same,glycan array binding signal (z-score),[18],-0.394
same,glycan array binding signal (z-score),Fuc(a1-2)Gal(b1-4)Glc,-0.156
same,glycan array binding signal (z-score),Fuc(a1-2)Gal(b1-4)Glc6S,-0.407
same,glycan array binding signal (z-score),Fuc(a1-2)Gal(b1-4)GlcNAc,-0.108
same,glycan array binding signal (z-score),[19],-0.281
same,glycan array binding signal (z-score),[20],0.694
same,glycan array binding signal (z-score),[21],0.117
same,glycan array binding signal (z-score),[22],0.011
same,glycan array binding signal (z-score),[23],0.879
same,glycan array binding signal (z-score),[24],0.532
same,glycan array binding signal (z-score),[25],-0.814
same,glycan array binding signal (z-score),[26],0.009
same,glycan array binding signal (z-score),[27],-0.236
same,glycan array binding signal (z-score),[28],-0.28
same,glycan array binding signal (z-score),[29],0.043
same,glycan array binding signal (z-score),[30],-0.289
same,glycan array binding signal (z-score),[31],-0.172
same,glycan array binding signal (z-score),[32],0.355
same,glycan array binding signal (z-score),[33],-0.253
same,glycan array binding signal (z-score),[34],-0.303
same,glycan array binding signal (z-score),[35],-0.001
same,glycan array binding signal (z-score),[36],1.14
same,glycan array binding signal (z-score),[37],-0.725
same,glycan array binding signal (z-score),[38],-0.453
same,glycan array binding signal (z-score),[39],-0.236
